Source: PubChem BioAssay AID1508588 (Peter MacCallum Cancer Centre, 2020)
In all, the deposit lists about 18,000 reagents; shown is a random part of them. In the full data, 790 (4.4%) were called active. 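Calls rest on a combination of fold-change classes in drug and vehicle arms, not all shown here.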 Unmarked entries are inactive. No sequences are given here.

- Screen: 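Which gene losses make BRAF-mutant melanoma cells more responsive to vemurafenib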 (primary screen)
- Cells: human WM266.4 melanoma cells (BRAF V600 mutant)
- Reagent: siRNA pool against human genes, 40 nM
- Duration: 96 h from transfection to read-out
- Challenge: vemurafenib 300 nM (about IC25), added 48 h after transfection, for 48 h; comparison arm got DMSO vehicle only
- Measurement: 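Ratios to non-targeting siRNA for cell gain, counted as DAPI nuclei after minus before drug and averaged over two replicates, and for absorbance-read medium lactate per cell; both binned into fold-change classes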
- Reading the numbers: cell gain with vemurafenib: higher = more cell gain than with non-targeting siRNA; lactate per cell with vemurafenib: higher = more lactate made per cell
- Rule for the call: 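a knock-down counts as enhancing when its fold-change classes with vehicle and with vemurafenib, taken together, show a stronger drug effect on cell gain or lactate per cell; exact class pairs not stated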
- Calls: active = enhances vemurafenib effect; inactive = no enhancement seen

The first 9 entries, ahead of the listing:
target | cell gain with vemurafenib | lactate per cell with vemurafenib
SCML2 (Scm polycomb group protein like 2) | 0.18 | 1.45
PLK4 (polo like kinase 4) | 0.48 | 1.75
USHBP1 (USH1 protein network component harmonin binding protein 1) | 0.83 | 0.76
NID2 (nidogen 2) | 0.71 | 0.59
ENOX1 (ecto-NOX disulfide-thiol exchanger 1) | 0.64 | 1.28
ALX3 (ALX homeobox 3) | 0.34 | 0.34
TUBA1C (tubulin alpha 1c) | -0.07 | 1.6
STAR (steroidogenic acute regulatory protein) | 0.18 | 0.68
TLCD3A (TLC domain containing 3A) | 0.34 | 0.84

Results, from the first entry:
target | cell gain with vemurafenib | lactate per cell with vemurafenib
SCML2 (Scm polycomb group protein like 2) | 0.18 | 1.45
PLK4 (polo like kinase 4) | 0.48 | 1.75
USHBP1 (USH1 protein network component harmonin binding protein 1) | 0.83 | 0.76
NID2 (nidogen 2) | 0.71 | 0.59
ENOX1 (ecto-NOX disulfide-thiol exchanger 1) | 0.64 | 1.28
ALX3 (ALX homeobox 3) | 0.34 | 0.34
TUBA1C (tubulin alpha 1c) | -0.07 | 1.6
STAR (steroidogenic acute regulatory protein) | 0.18 | 0.68
TLCD3A (TLC domain containing 3A) | 0.34 | 0.84
CARHSP1 (calcium regulated heat stable protein 1) | 0.11 | 2.04
HDGFL3 (HDGF like 3) | 0.86 | 0.84
HS3ST2 (heparan sulfate-glucosamine 3-sulfotransferase 2) | 0.71 | 1.02
IPO13 (importin 13) | 0.35 | 1.54
RAB12 (RAB12, member RAS oncogene family) | 0.35 | 1.01
FGF9 (fibroblast growth factor 9) | 1.05 | 0.52
SLC13A5 | 0.56 | 0.4
CASP8 (caspase 8) | 1.43 | 0.62
AIDA (axin interactor, dorsalization associated) | 0.94 | 0.94
PRTG (protogenin) | 0.7 | 0.32
ABCA13 (ATP binding cassette subfamily A member 13) | 0.69 | 0.46
OR2S2 (olfactory receptor family 2 subfamily S member 2) | 0.62 | 1.02
KIAA0825 | 0.78 | 1
PRKAR1B (protein kinase cAMP-dependent type I regulatory subunit beta) | -0.08 | 2.47
GOLGA7 (golgin A7) | 1.17 | 1.22
SNX18 (sorting nexin 18) | 0.13 | 1.31
TRIM34 (tripartite motif containing 34) | 0.81 | 0.94
ABCA7 (ATP binding cassette subfamily A member 7) | 1.24 | 0.84
DYNAP (dynactin associated protein) | 0.9 | 0.31
CCDC24 (coiled-coil domain containing 24) | 0.52 | 0.57
B4GALT7 (beta-1,4-galactosyltransferase 7) | 0.64 | 1.06
SLC35E1 | 1.67 | 0.4
SLC16A10 | 0.59 | 0.64
ZBTB1 (zinc finger and BTB domain containing 1) | 0.49 | 0.62
WDR62 (WD repeat domain 62) | 0.64 | 0.74
CANX (calnexin) | -0.17 (active) | -0.11
PUS3 (pseudouridine synthase 3) | 0.77 | 1.08
ASIC1 (acid sensing ion channel subunit 1) | 0.53 | 1.77
COX7C (cytochrome c oxidase subunit 7C) | 0.81 | 1.02
PROZ (protein Z, vitamin K dependent plasma glycoprotein) | 1.04 | 0.67
GLS (glutaminase) | 0.46 | 1.78
HMGB4 (high mobility group box 4) | 0.74 | 0.67
ZNF582 (zinc finger protein 582) | 0.44 | 1.69
H4C11 (H4 clustered histone 11) | 1.32 | 1.28
ARMH4 (armadillo like helical domain containing 4) | 0.72 | 0.44
DEFB105B (defensin beta 105B) | 0.21 | 1.55
VCL (vinculin) | 0.46 | 1.32
PCDHB8 (protocadherin beta 8) | 0.77 | 0.4
MESP1 (mesoderm posterior bHLH transcription factor 1) | 0.99 | 0.73
DIO2 (iodothyronine deiodinase 2) | 0.71 | 0.73
THBS3 (thrombospondin 3) | 0.66 | 1.01
ANGPTL6 (angiopoietin like 6) | 0.81 | 0.7
OXCT1 (3-oxoacid CoA-transferase 1) | 1.15 | 0.74
INS-IGF2 (INS-IGF2 readthrough) | 0.79 | 1.09
CLIP1 (CAP-Gly domain containing linker protein 1) | 0.67 | 0.71
EFNA2 (ephrin A2) | 0.89 | 0.98
PITPNA (phosphatidylinositol transfer protein alpha) | 0.79 | 0.9
ZNF761 (zinc finger protein 761) | 0.2 | 2.27
PLXNA1 (plexin A1) | 0.94 | 1.16
KHDRBS3 | 1.18 | 1.05
PSMB2 (proteasome 20S subunit beta 2) | -0.02 | 2.09
SH2D4B (SH2 domain containing 4B) | 0.9 | 0.96
SLC11A2 | 0.45 | 1.74
ADPRM (ADP-ribose/CDP-alcohol diphosphatase, manganese dependent) | 0.84 | 0.88
SLC22A4 | 0.83 | 0.84
TFPI (tissue factor pathway inhibitor) | 0.8 | 0.74
MIXL1 (Mix paired-like homeobox) | 0.69 | 1.04
PRSS16 (serine protease 16) | 1.15 (active) | 0.4
MAGEA9 (MAGE family member A9) | 0.44 | 0.92
TASOR (transcription activation suppressor) | 0.49 | 1.58
CCDC148 (coiled-coil domain containing 148) | 0.44 | 0.6
MCM10 (minichromosome maintenance 10 replication initiation factor) | 0.01 | 1.56
SLC39A11 | 0.12 | 0.56
ROR1 (ROR family WNT receptor 1) | 1.06 | 0.76
FARS2 (phenylalanyl-tRNA synthetase 2, mitochondrial) | 0.5 | 0.8
MTERF4 (mitochondrial transcription termination factor 4) | 0.12 | 1.06
ZNF296 (zinc finger protein 296) | 0.47 | 1.05
CRYBG2 (crystallin beta-gamma domain containing 2) | 0.26 | 0.72
SLC5A11 | 0.93 | 0.86
MTFMT (mitochondrial methionyl-tRNA formyltransferase) | 0.59 | 0.87
EFNB1 (ephrin B1) | 0.21 | 1.66
CMSS1 (cms1 ribosomal small subunit homolog) | 0.66 | 0.7
MTPN (myotrophin) | 0.52 | 1.05
BATF2 (basic leucine zipper ATF-like transcription factor 2) | 0.18 | 2.04
ARGFX (arginine-fifty homeobox) | 0.51 | 1.53
